In article PMC7255803:

Molecular target: T1, SIMR-1 (bait of the SIMR-1 immunoprecipitations) (C. elegans) (UniProt O01477)
T1 sequence: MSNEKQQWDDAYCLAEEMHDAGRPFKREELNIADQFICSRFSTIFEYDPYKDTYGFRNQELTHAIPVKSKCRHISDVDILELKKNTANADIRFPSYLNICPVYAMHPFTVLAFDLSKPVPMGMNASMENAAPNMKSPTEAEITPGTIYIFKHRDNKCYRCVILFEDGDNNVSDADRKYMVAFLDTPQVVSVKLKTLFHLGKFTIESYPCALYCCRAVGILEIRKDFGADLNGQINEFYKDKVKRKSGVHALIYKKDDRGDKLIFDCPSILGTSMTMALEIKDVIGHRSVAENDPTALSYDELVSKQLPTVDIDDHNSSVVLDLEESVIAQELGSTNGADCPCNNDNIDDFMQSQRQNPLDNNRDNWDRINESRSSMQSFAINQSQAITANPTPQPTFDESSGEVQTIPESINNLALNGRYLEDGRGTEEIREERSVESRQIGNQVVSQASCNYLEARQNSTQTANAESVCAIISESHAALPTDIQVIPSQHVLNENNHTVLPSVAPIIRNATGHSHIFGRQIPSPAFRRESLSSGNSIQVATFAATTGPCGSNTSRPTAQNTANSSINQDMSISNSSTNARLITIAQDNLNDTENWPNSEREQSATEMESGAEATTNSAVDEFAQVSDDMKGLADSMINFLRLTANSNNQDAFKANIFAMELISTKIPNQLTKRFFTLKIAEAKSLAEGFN
Test: co-IP; SIMR-1 immunoprecipitations; no methods told, how RSD-2 was identified is not stated

binding: binds
Substance: RSD-2

These are yes or no findings as the source states them, for the method shown. Binding seen in cells or lysates may run through a third protein. A result given as binding can be weak or reduced; the word gives no strength.
